Legend:
Experiment in all cases: cells
[1] = test system: HepG2 (human hepatocellular carcinoma); settings: HepG2, read-out: Cytotoxicity IC50, HepG 2
Protocol: To determine the cytotoxicity of garciesculentone B, its IC50 values on HepG2, SMMC-7721, MCF-7, and MDA-MB-231 cell lines are measured. […] In addition, further study is taken to test whether garciesculentone B can exert effects on cell motility. A wound healing assay using ECA109 cells is performed in this regard.
Cytotoxicity Assay. Cytotoxic activitiy of garciesculentone B were evaluated by MTT assay using SMMC-7721 (human hepatocellular carcinoma), HepG2 (human hepatocellular carcinoma), MCF-7 (human breast adenocarcinoma), and MDA-MB-231 (human breast adenocarcinoma). Paclitaxel was used as positive control. The detailed methodology for cytotoxicity assay has already been described in Xia, Z.-X.; Zhang, D.-D.; Liang, S.; Lao, Y.-Z.; Zhang, H.; Tan, H.-S.; Chen, S.-L.; Wang, X.-H.; Xu, H.-X., Bioassay-Guided Isolation of Prenylated Xanthones and Polycyclic Acylphloroglucinols from the Leaves of Garcinia nujiangensis. Journal of Natural Products 2012.

[2] = test system: MCF-7 (human breast adenocarcinoma); format: cell-based; settings: MCF7, read-out: Cytotoxicity IC50, MCF-7
From the text: (§1) Cytotoxicity Assay. […] Paclitaxel was used as positive control. […] Journal of Natural Products 2012.

[3] = test system: MDA-MB-231 (human breast adenocarcinoma); format: cell-based; settings: MDA-MB-231, read-out: Cytotoxicity IC50, MDA-MB-231
From the text: as §1

CC(=O)O[C@H]1C(=O)[C@@]2(C)[C@H]([C@H](OC(=O)c3ccccc3)[C@]3(O)C[C@H](OC(=O)[C@H](O)[C@@H](NC(=O)c4ccccc4)c4ccccc4)C(C)=C1C3(C)C)[C@]1(OC(C)=O)CO[C@@H]1C[C@@H]2O [Palcitaxel, Paclitaxel, reference compound]
IC50 [1]: 4.6 nM
IC50 [2]: 1.5 nM
IC50 [3]: 8.2 nM

Source: patent US20140194498A1, “POLYISOPRENYLATED TETRACYCLIC XANTHONE WITH ANTICANCER ACTIVITY” (Hong Kong Baptist University, priority 2013, published 2014)
